PubChem BioAssay AID1259308 – NCATS, 2017

- Purpose: 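Candidate targets for better recombinant protein yield in mammalian cells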 (primary screen)
- Cells: human HEK293 embryonic kidney cells stably expressing firefly luciferase (HEK-CMV-Luc2-Hygro)
- Reagent: single siRNA against human genes, 0.8 pmol siRNA per well
- Time to read-out: 72 h
- Detection: 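Reporter luminescence and viable-cell signal on separate replicate plates, given as percent of non-targeting control and median/MAD z-scores, plus per-cell luciferase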
- Reading the numbers: total luciferase, z-score and total luciferase, % of control: higher = more reporter protein produced; luciferase per cell, z-score: higher = more reporter output per viable cell; viable cells, % of control: higher = more viable cells
- Call rule: 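An siRNA counts as active if its total luciferase robust z-score exceeds 3; genes with two or more such siRNAs out of three were retested with fresh siRNAs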
- Calls: active = raised luciferase; inactive = no rise
The whole screen tested about 59,000 reagents; shown is a part drawn at random. Over the whole deposit, about 1,510 (2.6%) were called active. 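Calls use total luciferase alone and ignore viability, so some active siRNAs may act by altering cell number.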 Entries without a mark were called inactive. Reagents against one gene are numbered here.

Gene	reagent no.	total luciferase, z-score	total luciferase, % of control	luciferase per cell, z-score	viable cells, % of control
BBS7 (Bardet-Biedl syndrome 7)	1	0.231	86.5	-0.126	99.9
BBS7 (Bardet-Biedl syndrome 7)	2	-0.382	74.3	-0.49	94.4
BBS7 (Bardet-Biedl syndrome 7)	3	0.768	97.2	0.306	100
SUSD5 (sushi domain containing 5)	1	-0.458	72.8	1.06	61.5
SUSD5 (sushi domain containing 5)	2	-0.789	66.2	-0.523	84.9
SUSD5 (sushi domain containing 5)	3	1.71	116	1.24	93.4
EXOC5 (exocyst complex component 5)	1	1.64	115	0.729	106
EXOC5 (exocyst complex component 5)	2	-0.0556	80.8	-0.0984	92.6
EXOC5 (exocyst complex component 5)	3	1.99	121	1.48	91.8
FKBP2 (FKBP prolyl isomerase 2)	1	-0.0354	81.2	-0.539	105
FKBP2 (FKBP prolyl isomerase 2)	2	-0.325	75.4	-0.453	94.9
FKBP2 (FKBP prolyl isomerase 2)	3	0.566	93.1	0.166	99.6
TOP1 (DNA topoisomerase I)	1	0.786	97.5	0.328	99.9
TOP1 (DNA topoisomerase I)	2	-0.632	69.3	-0.518	88.8
TOP1 (DNA topoisomerase I)	3	-0.117	79.6	0.367	80.7
ANXA10 (annexin A10)	1	0.282	87.5	0.608	83.3
ANXA10 (annexin A10)	2	-0.184	78.2	-0.628	103
ANXA10 (annexin A10)	3	-0.13	79.3	-0.335	96.8
MYO19 (myosin XIX)	1	-1.15	59.1	-1.06	87.3
MYO19 (myosin XIX)	2	-0.868	64.6	-0.33	78.8
MYO19 (myosin XIX)	3	2.69	135	1.9	91.7
PDCD1 (programmed cell death 1)	1	1.54	112	1.81	77.9
PDCD1 (programmed cell death 1)	2	-0.576	70.4	0.817	63.5
PDCD1 (programmed cell death 1)	3	1.25	107	1.14	88.4
SAV1 (salvador family WW domain containing protein 1)	1	-0.427	73.4	-0.696	98.5
SAV1 (salvador family WW domain containing protein 1)	2	-0.469	72.6	-0.0151	81.4
SAV1 (salvador family WW domain containing protein 1)	3	1.24	107	1.72	75.7
ACSM5 (acyl-CoA synthetase medium chain family member 5)	1	3.17 (active)	145	4.89	44.6
ACSM5 (acyl-CoA synthetase medium chain family member 5)	2	0.521	92.2	0.619	87.6
ACSM5 (acyl-CoA synthetase medium chain family member 5)	3	0.21	86.1	0.0752	94.3
NSMAF (neutral sphingomyelinase activation associated factor)	1	0.0453	82.8	-0.381	102
NSMAF (neutral sphingomyelinase activation associated factor)	2	0.105	84	0.845	75.1
NSMAF (neutral sphingomyelinase activation associated factor)	3	-0.725	67.5	-0.915	95.9
OR5M9 (olfactory receptor family 5 subfamily M member 9)	1	-0.617	69.6	-0.48	88.3
OR5M9 (olfactory receptor family 5 subfamily M member 9)	2	0.733	96.5	0.252	101
OR5M9 (olfactory receptor family 5 subfamily M member 9)	3	1.88	119	0.673	112

Continued (9 carried over from the part before).
Gene	reagent no.	total luciferase, z-score	total luciferase, % of control	luciferase per cell, z-score	viable cells, % of control
ACSM5 (acyl-CoA synthetase medium chain family member 5)	1	3.17 (active)	145	4.89	44.6
ACSM5 (acyl-CoA synthetase medium chain family member 5)	2	0.521	92.2	0.619	87.6
ACSM5 (acyl-CoA synthetase medium chain family member 5)	3	0.21	86.1	0.0752	94.3
NSMAF (neutral sphingomyelinase activation associated factor)	1	0.0453	82.8	-0.381	102
NSMAF (neutral sphingomyelinase activation associated factor)	2	0.105	84	0.845	75.1
NSMAF (neutral sphingomyelinase activation associated factor)	3	-0.725	67.5	-0.915	95.9
OR5M9 (olfactory receptor family 5 subfamily M member 9)	1	-0.617	69.6	-0.48	88.3
OR5M9 (olfactory receptor family 5 subfamily M member 9)	2	0.733	96.5	0.252	101
OR5M9 (olfactory receptor family 5 subfamily M member 9)	3	1.88	119	0.673	112
MED15 (mediator complex subunit 15)	1	-0.934	63.3	-0.43	79.2
MED15 (mediator complex subunit 15)	2	-1.03	61.4	-0.646	81.4
MED15 (mediator complex subunit 15)	3	0.206	86	0.627	81.5
SPRYD3 (SPRY domain containing 3)	1	0.571	93.2	0.45	92.6
SPRYD3 (SPRY domain containing 3)	2	0.00455	82	-0.679	110
SPRYD3 (SPRY domain containing 3)	3	0.952	101	0.684	94.1
MOGAT1 (monoacylglycerol O-acyltransferase 1)	1	-0.252	76.9	-0.396	95.3
MOGAT1 (monoacylglycerol O-acyltransferase 1)	2	-2.43	33.5	-1.31	52.9
MOGAT1 (monoacylglycerol O-acyltransferase 1)	3	0.555	92.9	0.574	89.3
SYT11 (synaptotagmin 11)	1	0.149	84.9	0.593	81.1
SYT11 (synaptotagmin 11)	2	-0.0169	81.6	-0.218	96.5
SYT11 (synaptotagmin 11)	3	-1.68	48.5	-1.78	86.6
ICMT (isoprenylcysteine carboxyl methyltransferase)	1	0.501	91.9	0.726	84.8
ICMT (isoprenylcysteine carboxyl methyltransferase)	2	0.245	86.8	0.696	80.7
ICMT (isoprenylcysteine carboxyl methyltransferase)	3	2.25	127	2.72	69
RNF185 (ring finger protein 185)	1	0.842	98.6	1.21	80
RNF185 (ring finger protein 185)	2	0.527	92.4	0.815	83.3
RNF185 (ring finger protein 185)	3	0.368	89.2	1.27	71.4
SPDYE4 (speedy/RINGO cell cycle regulator family member E4)	1	2.91	140	2.77	75.4
SPDYE4 (speedy/RINGO cell cycle regulator family member E4)	2	0.763	97.1	1.01	83
SPDYE4 (speedy/RINGO cell cycle regulator family member E4)	3	0.37	89.2	0.489	87.7
DHCR7 (7-dehydrocholesterol reductase)	1	-1.23	57.4	-1.11	85.8
DHCR7 (7-dehydrocholesterol reductase)	2	-0.154	78.8	0.636	74.5
DHCR7 (7-dehydrocholesterol reductase)	3	0.816	98.1	0.00417	110
DCAF4L2 (DDB1 and CUL4 associated factor 4 like 2)	1	0.374	89.3	-0.0618	101
DCAF4L2 (DDB1 and CUL4 associated factor 4 like 2)	2	1.97	121	1.34	95.1
DCAF4L2 (DDB1 and CUL4 associated factor 4 like 2)	3	-0.401	73.9	-0.0743	84.2
RPS10P29 (ribosomal protein S10 pseudogene 29)	1	-0.0764	80.4	-0.733	109
RPS10P29 (ribosomal protein S10 pseudogene 29)	2	0.464	91.1	1.01	78
RPS10P29 (ribosomal protein S10 pseudogene 29)	3	-0.227	77.4	-1.07	115
MSRB2 (methionine sulfoxide reductase B2)	1	1.51	112	0.944	97.5
MSRB2 (methionine sulfoxide reductase B2)	2	-1.09	60.2	0.358	61.2
MSRB2 (methionine sulfoxide reductase B2)	3	-0.662	68.7	-0.755	93.7
PCCB (propionyl-CoA carboxylase subunit beta)	1	1.38	109	1.7	78.1
PCCB (propionyl-CoA carboxylase subunit beta)	2	-0.0714	80.5	-0.285	96.9
PCCB (propionyl-CoA carboxylase subunit beta)	3	-0.644	69.1	-0.824	95.9
LOC642677 (stabilizer of axonemal microtubules 2 pseudogene)	1	0.685	95.5	0.458	94.6
LOC642677 (stabilizer of axonemal microtubules 2 pseudogene)	2	2.43	130	0.676	122
LOC642677 (stabilizer of axonemal microtubules 2 pseudogene)	3	-0.681	68.3	-0.298	82.6
